The supplement of paper PMC10849652
The list shows a part of the results.

By UniProt entry, the sequences of proteins in these tests, tags left out. Where a name states a change or a piece, a line headed by the entry shows the natural chain unless it says otherwise.
UniProt Q07065: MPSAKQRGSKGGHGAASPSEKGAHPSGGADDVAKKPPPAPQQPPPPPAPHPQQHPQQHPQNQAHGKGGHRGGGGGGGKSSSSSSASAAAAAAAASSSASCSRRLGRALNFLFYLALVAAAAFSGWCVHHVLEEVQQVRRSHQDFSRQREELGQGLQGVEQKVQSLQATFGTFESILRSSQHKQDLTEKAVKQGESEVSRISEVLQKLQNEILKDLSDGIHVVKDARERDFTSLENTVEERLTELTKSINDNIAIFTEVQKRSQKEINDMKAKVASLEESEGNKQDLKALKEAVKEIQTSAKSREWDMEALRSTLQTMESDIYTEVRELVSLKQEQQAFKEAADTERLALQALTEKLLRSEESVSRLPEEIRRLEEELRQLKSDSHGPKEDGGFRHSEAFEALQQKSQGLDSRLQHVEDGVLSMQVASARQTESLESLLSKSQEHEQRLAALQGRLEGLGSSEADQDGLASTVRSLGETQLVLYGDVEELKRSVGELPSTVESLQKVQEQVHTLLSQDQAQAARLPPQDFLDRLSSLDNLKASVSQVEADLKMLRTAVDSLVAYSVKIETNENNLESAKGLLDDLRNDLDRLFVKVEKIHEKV
UniProt Q9Y3Y2: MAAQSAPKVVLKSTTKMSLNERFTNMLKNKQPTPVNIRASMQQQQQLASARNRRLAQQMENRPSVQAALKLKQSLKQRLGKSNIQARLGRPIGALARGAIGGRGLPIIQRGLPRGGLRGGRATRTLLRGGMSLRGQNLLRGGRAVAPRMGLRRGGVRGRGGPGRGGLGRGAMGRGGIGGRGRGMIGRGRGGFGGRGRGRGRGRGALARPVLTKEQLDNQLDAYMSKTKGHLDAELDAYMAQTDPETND
UniProt P08123: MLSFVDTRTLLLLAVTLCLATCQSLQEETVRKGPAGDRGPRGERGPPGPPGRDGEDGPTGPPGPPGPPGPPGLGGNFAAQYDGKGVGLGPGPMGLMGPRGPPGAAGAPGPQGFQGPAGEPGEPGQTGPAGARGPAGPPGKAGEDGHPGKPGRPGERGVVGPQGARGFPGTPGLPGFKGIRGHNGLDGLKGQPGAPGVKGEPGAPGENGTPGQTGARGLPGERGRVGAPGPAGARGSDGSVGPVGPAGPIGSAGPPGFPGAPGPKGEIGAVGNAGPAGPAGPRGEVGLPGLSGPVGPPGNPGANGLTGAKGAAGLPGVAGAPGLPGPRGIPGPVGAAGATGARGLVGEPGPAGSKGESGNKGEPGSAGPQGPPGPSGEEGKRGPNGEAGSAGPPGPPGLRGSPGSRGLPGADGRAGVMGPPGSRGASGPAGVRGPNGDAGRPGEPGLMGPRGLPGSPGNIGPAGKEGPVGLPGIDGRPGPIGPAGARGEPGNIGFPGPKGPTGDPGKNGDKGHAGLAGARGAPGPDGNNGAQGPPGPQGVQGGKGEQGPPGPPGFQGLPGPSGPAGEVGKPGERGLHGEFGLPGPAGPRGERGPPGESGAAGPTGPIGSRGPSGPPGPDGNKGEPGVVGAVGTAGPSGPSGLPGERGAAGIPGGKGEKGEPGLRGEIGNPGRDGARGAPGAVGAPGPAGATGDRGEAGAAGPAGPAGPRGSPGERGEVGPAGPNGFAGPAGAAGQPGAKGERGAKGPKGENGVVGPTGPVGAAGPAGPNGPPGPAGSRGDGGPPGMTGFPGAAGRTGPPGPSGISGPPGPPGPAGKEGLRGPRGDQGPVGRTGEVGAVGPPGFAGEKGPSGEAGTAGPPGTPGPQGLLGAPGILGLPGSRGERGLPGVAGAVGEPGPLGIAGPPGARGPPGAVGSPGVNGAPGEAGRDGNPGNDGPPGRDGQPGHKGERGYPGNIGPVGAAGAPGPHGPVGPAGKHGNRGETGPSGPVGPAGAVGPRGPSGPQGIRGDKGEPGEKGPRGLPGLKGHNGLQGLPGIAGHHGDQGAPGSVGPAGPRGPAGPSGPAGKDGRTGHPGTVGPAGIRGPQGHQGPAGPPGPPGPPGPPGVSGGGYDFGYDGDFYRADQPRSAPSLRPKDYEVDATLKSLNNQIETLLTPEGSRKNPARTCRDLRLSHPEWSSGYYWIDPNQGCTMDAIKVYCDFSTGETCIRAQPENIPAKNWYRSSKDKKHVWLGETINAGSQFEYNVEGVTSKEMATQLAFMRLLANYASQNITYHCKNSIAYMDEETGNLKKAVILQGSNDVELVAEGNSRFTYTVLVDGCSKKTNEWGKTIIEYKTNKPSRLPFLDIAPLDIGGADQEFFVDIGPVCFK
UniProt Q8WUD6: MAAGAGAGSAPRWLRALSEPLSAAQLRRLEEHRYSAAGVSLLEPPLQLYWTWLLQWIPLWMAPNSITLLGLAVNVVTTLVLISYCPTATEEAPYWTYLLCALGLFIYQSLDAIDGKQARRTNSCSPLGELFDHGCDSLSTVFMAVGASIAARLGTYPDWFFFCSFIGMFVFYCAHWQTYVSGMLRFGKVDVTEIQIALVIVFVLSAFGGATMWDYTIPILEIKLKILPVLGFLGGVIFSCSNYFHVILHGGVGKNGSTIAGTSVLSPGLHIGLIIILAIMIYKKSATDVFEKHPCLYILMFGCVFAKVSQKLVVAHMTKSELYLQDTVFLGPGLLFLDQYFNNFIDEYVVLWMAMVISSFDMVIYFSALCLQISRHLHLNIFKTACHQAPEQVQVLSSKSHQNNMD
UniProt Q9NX76: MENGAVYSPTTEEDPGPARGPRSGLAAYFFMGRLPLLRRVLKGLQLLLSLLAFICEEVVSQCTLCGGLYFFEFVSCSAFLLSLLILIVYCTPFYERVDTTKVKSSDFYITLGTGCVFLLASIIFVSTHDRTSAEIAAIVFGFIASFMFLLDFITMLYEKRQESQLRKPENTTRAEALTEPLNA
UniProt O43529: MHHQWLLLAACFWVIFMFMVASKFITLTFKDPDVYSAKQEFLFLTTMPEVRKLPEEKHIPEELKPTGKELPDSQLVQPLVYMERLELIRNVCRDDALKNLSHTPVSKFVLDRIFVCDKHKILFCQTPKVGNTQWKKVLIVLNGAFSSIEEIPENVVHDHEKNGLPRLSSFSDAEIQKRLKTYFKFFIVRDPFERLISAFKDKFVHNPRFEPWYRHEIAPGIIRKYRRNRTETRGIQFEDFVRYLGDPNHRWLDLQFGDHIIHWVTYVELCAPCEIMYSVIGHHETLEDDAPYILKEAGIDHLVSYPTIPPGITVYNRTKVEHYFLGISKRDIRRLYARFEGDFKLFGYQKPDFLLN
UniProt Q8WUX9: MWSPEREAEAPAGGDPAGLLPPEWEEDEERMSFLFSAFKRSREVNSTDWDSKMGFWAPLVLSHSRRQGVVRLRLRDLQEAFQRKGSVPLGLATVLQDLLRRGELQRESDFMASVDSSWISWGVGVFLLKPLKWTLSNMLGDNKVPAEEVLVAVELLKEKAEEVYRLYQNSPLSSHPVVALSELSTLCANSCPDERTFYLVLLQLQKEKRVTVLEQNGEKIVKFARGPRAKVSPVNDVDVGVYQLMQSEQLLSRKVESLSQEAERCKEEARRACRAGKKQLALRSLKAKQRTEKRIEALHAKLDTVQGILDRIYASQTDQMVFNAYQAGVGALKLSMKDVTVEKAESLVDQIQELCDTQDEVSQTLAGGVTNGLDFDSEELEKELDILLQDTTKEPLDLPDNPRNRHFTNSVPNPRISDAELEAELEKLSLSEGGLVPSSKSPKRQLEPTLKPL
UniProt Q14746: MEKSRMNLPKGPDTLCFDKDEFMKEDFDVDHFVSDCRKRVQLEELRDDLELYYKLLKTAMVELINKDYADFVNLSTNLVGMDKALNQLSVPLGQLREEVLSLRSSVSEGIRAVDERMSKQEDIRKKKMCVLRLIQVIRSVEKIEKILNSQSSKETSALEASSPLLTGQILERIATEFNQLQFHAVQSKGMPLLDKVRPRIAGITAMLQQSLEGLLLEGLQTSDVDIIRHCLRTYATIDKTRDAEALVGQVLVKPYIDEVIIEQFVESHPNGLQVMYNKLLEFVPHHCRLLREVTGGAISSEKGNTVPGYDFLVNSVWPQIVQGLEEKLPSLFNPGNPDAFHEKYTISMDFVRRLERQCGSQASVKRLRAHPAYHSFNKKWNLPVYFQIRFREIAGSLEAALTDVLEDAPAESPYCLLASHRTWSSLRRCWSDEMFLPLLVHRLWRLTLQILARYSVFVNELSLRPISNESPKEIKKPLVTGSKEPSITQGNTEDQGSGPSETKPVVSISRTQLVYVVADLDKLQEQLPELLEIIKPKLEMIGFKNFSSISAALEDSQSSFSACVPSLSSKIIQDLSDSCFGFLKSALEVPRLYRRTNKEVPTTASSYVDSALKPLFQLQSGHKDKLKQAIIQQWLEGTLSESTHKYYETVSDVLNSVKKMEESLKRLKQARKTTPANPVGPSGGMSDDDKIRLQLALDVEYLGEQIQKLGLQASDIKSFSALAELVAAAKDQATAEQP

Tests used:
Experiment in all cases: log2 fold change, soluble protein after heating vs DMSO (PISA); higher = thermal stabilisation; K562 cells, 10 uM, 30 min; active = over 0.2 and 3.5 SD of the protein, either way, in both replicates (recomputed)
[1] = compound: NC(=O)Nc1cc(-c2cccc(F)c2)sc1C(=O)N[C@H]1CCCNC1
How it was run: (§1)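 K562 cells at 2×10^6 cells/mL were treated with 10 μM compound for 30 min. Aliquots were heated for 3 min across 48°C-58°C, pooled, and extracted in PBS with 0.5% NP-40 at 4°C; soluble protein was the supernatant after 21,000xg for 90 min. Soluble protein was quantified by TMTpro 16plex LC-MS/MS with channel sums equalised, and reported as log2 fold change in thermal stability against DMSO controls, with values from duplicates.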

[2] = compound: NC(=O)c1cnc(N[C@@H]2CCCC[C@@H]2N)nc1Nc1cccc(-n2nccn2)c1
How it was run: as §1

[3] = compound: NC1(c2ccc(-c3nc4ccn5c(=O)[nH]nc5c4cc3-c3ccccc3)cc2)CCC1
How it was run: as §1

[4] = compound: NCC(=O)Nc1ccc(-n2nc(C(F)(F)F)cc2-c2ccc3c(ccc4ccccc43)c2)cc1
How it was run: as §1

[5] = compound: Nc1ccccc1NC(=O)c1ccc(CNC(=O)OCc2cccnc2)cc1 [entinostat]
How it was run: as §1

[6] = compound: O=C(CCCCCCNC(=O)c1cnc(N(c2ccccc2)c2ccccc2Cl)nc1)NO [citarinostat]
How it was run: as §1

[7] = compound: O=C(O)c1ccc2c(c1)nc(Nc1cccc(Cl)c1)c1ccncc12 [silmitasertib]
How it was run: as §1

[8] = compound: c1cc(OCCN2CCCCC2)cc(-c2n[nH]c3ccc(-c4nnc[nH]4)cc23)c1
How it was run: as §1

[9] = compound: c1cn2cc(-c3ccc4cn[nH]c4c3)nc(Nc3ccc(N4CCOCC4)cc3)c2n1 [entospletinib]
How it was run: as §1

[10] = compound: O=C1NC(=O)C(c2cnc3ccccn23)=C1c1cn2c3c(cc(F)cc13)CN(C(=O)N1CCCCC1)CC2
How it was run: as §1

[11] = compound: O=C(CCCCCCC(=O)Nc1ccccc1)NO [vorinostat]
How it was run: as §1

Measured: log2 fold change

CKAP4 (UniProt Q07065)
inactive: [1] 0.014 | [2] -0.005 | [3] -0.012 | [4] 0.027 | [5] -0.04 | [6] -0.095 | [7] -0.053 | [8] 0.135 | [9] -0.011

CHTOP isoform 3 (UniProt Q9Y3Y2)
inactive: [1] 0.39 | [3] 0.39 | [4] 0.323 | [5] -0.078 | [7] 0.187 | [10] 0.252

COL1A2 (UniProt P08123)
inactive: [1] -0.014 | [2] 0.033 | [4] 0.08 | [5] -0.038 | [11] -0.081 | [6] -0.014 | [10] 0.302 | [8] 0.444 | [9] 0.216

CHPT1 (UniProt Q8WUD6)
inactive: [1] 0 | [2] -0.039 | [3] -0.059 | [5] 0.062 | [11] 0.066 | [6] 0.002 | [7] -0.042 | [10] -0.049 | [8] 0.019

CMTM6 (UniProt Q9NX76)
inactive: [1] -0.001 | [2] -0.05 | [3] 0.009 | [4] -0.041 | [5] -0.056 | [6] -0.028 | [7] -0.061 | [10] -0.042 | [8] -0.016 | [9] 0.127

CHST10 (UniProt O43529)
inactive: [1] 0.059 | [2] 0.023 | [3] -0.142 | [5] 0.048 | [11] 0.015 | [7] -0.059 | [10] -0.032

CHMP7 (UniProt Q8WUX9)
inactive: [1] 0 | [2] -0.031 | [3] -0.107 | [5] 0.035 | [11] 0.033 | [6] 0.159 | [7] 0 | [10] 0.199 | [8] 0.102 | [9] -0.132

COG2 (UniProt Q14746)
inactive: [1] -0.07 | [2] -0.513 | [3] -0.487 | [5] 0.138 | [6] 0.101 | [7] 0.248 | [10] -0.031 | [8] 0.34

Two consecutive entries from above:
COL1A2 (UniProt P08123)
inactive: [1] -0.014 | [2] 0.033 | [4] 0.08 | [5] -0.038 | [11] -0.081 | [6] -0.014 | [10] 0.302 | [8] 0.444 | [9] 0.216

CHPT1 (UniProt Q8WUD6)
inactive: [1] 0 | [2] -0.039 | [3] -0.059 | [5] 0.062 | [11] 0.066 | [6] 0.002 | [7] -0.042 | [10] -0.049 | [8] 0.019
